No constants are given. Whether binding was seen depends on the method and setting. For part of these data: Binding calls can cover weak binding; strength is not graded here. For part of these data: Where a sequence is shown, tags or fusion partners need not be part of it.
Assays:
[1] = target: T1, PqsD, bacterial two-hybrid fusion (P. aeruginosa) (UniProt P20582); test: two-hybrid
T1 sequence: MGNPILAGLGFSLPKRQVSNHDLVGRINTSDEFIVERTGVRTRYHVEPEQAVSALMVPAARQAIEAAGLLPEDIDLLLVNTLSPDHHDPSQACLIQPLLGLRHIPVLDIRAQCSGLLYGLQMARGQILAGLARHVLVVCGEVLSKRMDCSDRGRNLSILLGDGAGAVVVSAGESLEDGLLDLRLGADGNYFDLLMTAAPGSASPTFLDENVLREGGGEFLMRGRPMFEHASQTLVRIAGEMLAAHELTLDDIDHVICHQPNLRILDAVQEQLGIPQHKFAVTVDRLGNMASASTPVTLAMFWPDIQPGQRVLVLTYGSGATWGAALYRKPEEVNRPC

[2] = target: PA1217 (full protein), bacterial two-hybrid fusion (P. aeruginosa PAO1) (UniProt Q9I4C1); test: two-hybrid

Substance | binding [1] | binding [2]
PA1217 (full protein), bacterial two-hybrid fusion (from UniProt Q9I4C1) (enzyme) | binds | –
ThiD, bacterial two-hybrid fusion (from UniProt A0A0H2ZFT8) (enzyme) | no binding | no binding

Source: article doi:10.1101/577908
